Binding data for two substances are collected here from publication PMC6222122.

Sequences of proteins named here, by UniProt entry; tags and fusion partners are left off. A change or cut given only in a name is not applied to a line headed by its entry. Residues count along the entry.
UniProt O75533: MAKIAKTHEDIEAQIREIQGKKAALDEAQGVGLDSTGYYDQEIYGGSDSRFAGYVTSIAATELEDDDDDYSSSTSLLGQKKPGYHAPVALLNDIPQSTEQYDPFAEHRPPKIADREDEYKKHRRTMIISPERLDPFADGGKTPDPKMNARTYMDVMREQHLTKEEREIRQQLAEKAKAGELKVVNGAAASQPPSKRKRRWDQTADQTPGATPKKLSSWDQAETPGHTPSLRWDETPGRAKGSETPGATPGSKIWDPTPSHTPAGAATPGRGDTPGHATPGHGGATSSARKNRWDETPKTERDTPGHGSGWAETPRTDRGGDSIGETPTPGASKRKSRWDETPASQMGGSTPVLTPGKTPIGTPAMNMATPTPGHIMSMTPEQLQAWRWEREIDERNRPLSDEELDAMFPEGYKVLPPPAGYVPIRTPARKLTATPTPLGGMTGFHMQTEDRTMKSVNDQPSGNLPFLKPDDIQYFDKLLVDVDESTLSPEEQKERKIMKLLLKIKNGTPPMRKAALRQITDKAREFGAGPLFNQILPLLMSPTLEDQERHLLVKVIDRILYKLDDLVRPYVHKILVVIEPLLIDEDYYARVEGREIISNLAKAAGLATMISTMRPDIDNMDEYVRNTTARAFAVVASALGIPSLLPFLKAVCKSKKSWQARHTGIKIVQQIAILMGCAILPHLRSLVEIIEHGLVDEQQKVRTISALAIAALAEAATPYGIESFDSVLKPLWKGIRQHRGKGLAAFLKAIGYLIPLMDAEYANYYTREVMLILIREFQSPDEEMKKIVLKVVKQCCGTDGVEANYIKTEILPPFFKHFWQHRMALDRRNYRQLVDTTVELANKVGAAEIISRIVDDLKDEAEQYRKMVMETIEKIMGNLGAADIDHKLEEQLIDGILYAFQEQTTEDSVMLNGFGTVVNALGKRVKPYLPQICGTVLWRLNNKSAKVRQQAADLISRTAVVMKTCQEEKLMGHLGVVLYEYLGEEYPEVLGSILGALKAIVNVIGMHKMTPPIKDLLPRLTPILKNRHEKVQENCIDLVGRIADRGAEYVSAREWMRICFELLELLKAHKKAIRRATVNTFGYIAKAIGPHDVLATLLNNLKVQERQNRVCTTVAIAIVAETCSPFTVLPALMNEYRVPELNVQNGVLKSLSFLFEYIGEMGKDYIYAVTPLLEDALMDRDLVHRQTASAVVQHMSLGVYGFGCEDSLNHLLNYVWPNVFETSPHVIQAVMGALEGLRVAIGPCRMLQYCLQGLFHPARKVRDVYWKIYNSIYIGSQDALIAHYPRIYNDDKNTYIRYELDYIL
UniProt O60563: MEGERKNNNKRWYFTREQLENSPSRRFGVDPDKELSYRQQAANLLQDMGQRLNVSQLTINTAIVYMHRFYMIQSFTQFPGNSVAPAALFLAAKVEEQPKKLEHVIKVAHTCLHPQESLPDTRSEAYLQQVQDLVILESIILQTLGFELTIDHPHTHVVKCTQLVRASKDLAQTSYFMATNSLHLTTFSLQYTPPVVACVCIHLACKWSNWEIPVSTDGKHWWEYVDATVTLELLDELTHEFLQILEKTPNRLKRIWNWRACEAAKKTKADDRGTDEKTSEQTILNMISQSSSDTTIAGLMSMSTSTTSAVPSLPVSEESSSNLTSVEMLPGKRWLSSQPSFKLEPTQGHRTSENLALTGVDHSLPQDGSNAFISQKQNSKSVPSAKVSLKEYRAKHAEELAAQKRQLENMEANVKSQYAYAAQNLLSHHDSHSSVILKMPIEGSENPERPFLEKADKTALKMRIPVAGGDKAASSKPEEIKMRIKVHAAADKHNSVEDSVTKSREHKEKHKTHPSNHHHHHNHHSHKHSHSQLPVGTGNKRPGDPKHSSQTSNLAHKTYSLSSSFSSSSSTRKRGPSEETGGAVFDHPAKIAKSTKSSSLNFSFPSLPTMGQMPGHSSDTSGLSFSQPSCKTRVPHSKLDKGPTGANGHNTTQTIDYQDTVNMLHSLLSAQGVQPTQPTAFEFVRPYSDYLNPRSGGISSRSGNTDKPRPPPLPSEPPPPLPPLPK
UniProt P04608: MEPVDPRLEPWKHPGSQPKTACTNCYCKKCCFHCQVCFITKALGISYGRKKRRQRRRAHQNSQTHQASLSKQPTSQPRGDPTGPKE
GST-Tat 1-72R, one exon, wild-type: residues 1-72 of P04608
GST-Tat 1-48w, truncated after amino acid 48 with wild-type activation domain: residues 1-48 of P04608
UniProt P50750: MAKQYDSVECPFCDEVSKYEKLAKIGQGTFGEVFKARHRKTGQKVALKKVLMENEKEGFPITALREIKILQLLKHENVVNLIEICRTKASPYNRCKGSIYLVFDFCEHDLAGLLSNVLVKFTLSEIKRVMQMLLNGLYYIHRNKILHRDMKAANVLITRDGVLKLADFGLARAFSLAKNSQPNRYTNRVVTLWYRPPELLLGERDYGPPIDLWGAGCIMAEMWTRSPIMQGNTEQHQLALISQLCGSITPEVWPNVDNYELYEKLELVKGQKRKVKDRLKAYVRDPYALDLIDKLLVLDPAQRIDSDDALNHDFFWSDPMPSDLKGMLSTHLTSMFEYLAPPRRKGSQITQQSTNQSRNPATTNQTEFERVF

Assay [1] concerns the target splicing factor 3B subunit 1 (SF3B1), endogenous in JLAT10.6 cells (human (endogenous in JLAT10.6)) (UniProt O75533). As to the kind of experiment: co-IP.
Assay [2] has as its target Myc-cyclin T1 (UniProt O60563). The experiment in a line: co-IP.
Assay [3] addresses GST-Tat 1-48w, truncated after amino acid 48 with wild-type activation domain (HIV-1) (UniProt P04608). As to the kind of experiment: pull-down; GST or GST-Tat mutants on glutathione Sepharose 4B beads incubated with untransfected 293T whole-cell lysate at 4°C overnight; blot probed for endogenous SF3B1 or GST; only the target purified.
Assay [4] concerns the target GST-Tat 1-72R, one exon, wild-type (HIV-1) (UniProt P04608). The description is as above.
The target of assay [5] is GST-Tat 1-86R, two exons, wild-type (HIV-1) (UniProt P04608). The description is as above.

These are yes or no findings as the source states them, for the method shown. Binding seen in cells or lysates may run through a third protein. Some binding calls cover weakened binding; strength is not graded here.

On to “cyclin-dependent kinase 9 (CDK9), endogenous in JLAT10.6 cells (from UniProt P50750 1-372)”, for which the binding entry in assay [1] is on record as “binds”.
For “splicing factor 3B subunit 1 (SF3B1), endogenous in 293T cells (from UniProt O75533 1-1304)”, the binding entry in assay [2] is “binds”; in assay [3] it was “no binding”; in assay [4], “binds”; in assay [5], “binds”.
